Literature values as cited in US20040167220A1, “Environmentally safe fungicide and bactericide formulations” (priority 2003, published 2004).
For at least one compound, name, drawing or mass did not settle the structure. Some of these results come from one statement about several compounds together.

Experiments:
[1] = cited from earlier work
[2] = system: powdery mildew on spring barley; conditions: used alone at concentrations of 0.03% to 0.23%; cited from earlier work

| Structure (SMILES) | threshold limit value (TLV) [1] [ppm] | reduction of powdery mildew on spring barley [2] [%] |
| --- | --- | --- |
| O=S=O [Sulfur dioxide] | 2 | – |
| CCC(=O)[O-].[Na+] [sodium propionate] | – | 25 to 40 |
